Source: PMC5376975, “Structural studies of RFCC tf18 reveal a novel chromatin recruitment role for Dcc1”

What was measured:
Test in all cases: EMSA
[1] = target: T1, Dcc1 R367A (Saccharomyces cerevisiae) (UniProt P25559); conditions: 6% native gel in 0.5x TBE, 4 C, DNA 1 uM unless stated, binding buffer, salt and pH not stated, recombinant protein
T1 sequence (looked up): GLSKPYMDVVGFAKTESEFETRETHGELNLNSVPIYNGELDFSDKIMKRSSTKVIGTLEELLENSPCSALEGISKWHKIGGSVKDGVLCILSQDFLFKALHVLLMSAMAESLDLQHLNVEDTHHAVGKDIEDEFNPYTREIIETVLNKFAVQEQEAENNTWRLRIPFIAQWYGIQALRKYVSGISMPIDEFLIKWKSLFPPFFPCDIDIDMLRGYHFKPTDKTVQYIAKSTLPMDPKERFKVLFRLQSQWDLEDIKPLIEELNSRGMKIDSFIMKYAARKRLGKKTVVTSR

[2] = target: T2, Dcc1 K364A (Saccharomyces cerevisiae) (UniProt P25559); conditions: weak reduction, 6% native gel in 0.5x TBE, 4 C, DNA 1 uM unless stated, binding buffer, salt and pH not stated, recombinant protein
T2 sequence (looked up): T1 sequence (looked up) with K275A, A278R

[3] = target: T3, Dcc1 R380A (Saccharomyces cerevisiae) (UniProt P25559); conditions: 6% native gel in 0.5x TBE, 4 C, DNA 1 uM unless stated, binding buffer, salt and pH not stated, recombinant protein
T3 sequence (looked up): T1 sequence (looked up) with A278R, R291A

[4] = target: T4, Dcc1 dWH3 del319-380 (Saccharomyces cerevisiae) (UniProt P25559); conditions: no shift at 1 uM DNA (Fig 4B), slight shift at reduced DNA, overexposed gel, 6% native gel in 0.5x TBE, 4 C, DNA 1 uM unless stated, binding buffer, salt and pH not stated, recombinant protein, residues 90-318, label: 5' 6-FAM, single-stranded DNA
T4 sequence (looked up): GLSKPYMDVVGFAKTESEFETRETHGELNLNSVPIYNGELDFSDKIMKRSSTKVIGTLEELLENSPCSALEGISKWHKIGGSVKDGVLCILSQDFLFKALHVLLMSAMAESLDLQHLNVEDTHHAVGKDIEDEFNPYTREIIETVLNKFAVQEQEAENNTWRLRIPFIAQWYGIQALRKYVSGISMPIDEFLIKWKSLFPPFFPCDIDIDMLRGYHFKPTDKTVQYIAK

[5] = residues 90-380, label: 5' 6-FAM on sense strand
[6] = residues 90-380, label: 5' 6-FAM, single-stranded DNA

Measured: binding result

TCTCCACAGGAAACGGAGGGGT (double strand) [22-mer dsDNA]
binds more weakly: [1]; [5] | [2]; [5] | [3]; [5]

TTTTTTTTTTTTTTTTTTTTTTTTT [25-mer oligo d(T)]
binds more weakly: [1]; [6] | [2]; [6] | [3]; [6] | [4]

Positions count from the first letter of the chain named. The comparison behind a weaker result is the experiment's own reference, which may not be listed here. Tags and fusion partners may be left off the protein sequences shown.
